## Assay results

Source: PubChem BioAssay AID463188 (University of Pittsburgh Molecular Library Screening Center, 2010).

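A z-score from a phospho-tyrosine peptide counterscreen run alongside a FRET kinase assay of purified Hck-YEEI bound to Nef, read after timed room-temperature incubations. Compounds were tested at a single concentration of 10 µM. The number is a z-score for the p-Tyr peptide counterscreen; higher values mean a stronger counterscreen signal, and values above 3 mark a compound as likely interfering.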

Common to all entries: measured here: p-Tyr peptide counterscreen. Part of the compounds only, not a random draw; the main read-out is not listed here.

structure | z-score
Cc1ccc(C2=NOC(=O)/C2=C\C=C\c2ccccc2)cc1 | -1.083
COc1ccccc1C1/C(=C(/O)c2ccccc2)C(=O)C(=O)N1CC(C)O (stereo not given) | 1.8
COc1ccccc1CNC(=O)/C=C/c1ccc(Br)o1 | -1.425
N#Cc1ccc(Cl)cc1NC(=O)CSc1nc2nc(-c3cccs3)cc(C(F)(F)F)c2c(=O)[nH]1 | 0.8707
CC1(C)Cc2nc(N3CCCC3)c(C#N)cc2CO1 | 1.804
O=c1c2ccccc2sn1-c1cc(S(=O)(=O)N2CCOCC2)ccc1N1CCOCC1 | 2.242
Cc1cccn2c(=O)c3cc(C#N)c(=NC(=O)c4cccs4)n(CCCOC(C)C)c3nc12 | 2.64
O=C1NC(=O)N(c2ccccc2)C(=O)/C1=C/c1coc2ccc(O)cc2c1=O | 0.4668
COc1ccc(N=Nc2c(C)[nH][nH]c2=O)cc1 | -0.2651
CCCCCCc1cc2cc(C(=O)NC)c(=N)oc2cc1O | 34.6
COc1ccc(/C=N/NC(=O)COc2cccc3cccnc23)cc1OC | 0.7511
CC(=O)COc1nc2c(c(-c3ccco3)c1C#N)CCc1ccccc1-2 | -0.918
COc1cc(NC(=S)Nc2ccccn2)cc(OC)c1OC | 0.4511
CCn1nc(NC(=O)C2CCCO2)c2cc3cccc(C)c3nc21 (stereo not given) | 46.73
NC(=S)N/N=C/c1coc2ccccc2c1=O | 0.1244
Cc1cc(C)c2c(N)c3ccccc3nc2n1 | 70.35
CC/C=C/C(=O)N1CC2(CC(c3cccc(NC(=O)CC(c4ccccc4)c4ccccc4)c3)=NO2)C[C@@H]1C(N)=O (stereo not given in full) | -1.436
Cc1c(O)ccc2c(CN3CCN(CCO)CC3)cc(=O)oc12 | 62.41
COc1ccc(-c2cnnc(N/N=C/c3ccc(-c4ccc([N+](=O)[O-])cc4)o3)n2)cc1 | -1.888
COc1cc2[nH]c(=S)n(Cc3cccs3)c(=O)c2cc1OC | 0.7637
COc1cc(-c2nc(-c3ccc(NC(=O)c4ccc5c(c4)OCO5)cc3)no2)cc(OC)c1OC | -0.6791
COc1ccc(/C=N/Nc2ncnc3c2[nH]c2ccc(C)cc23)c(OC)c1OC | 2.196
COc1ccc2nc(C)cc(SCC(=O)N/N=C/c3cccc4ccccc34)c2c1 | 2.182
COc1ccc(CN(C(=O)CSc2nnc(-c3ccc(F)cc3)o2)c2ccc(F)cc2)cc1 | -0.9914
Cc1ccc(S(=O)(=O)N(C)C)cc1NC(=S)NCc1ccco1 | -0.8665
O=C1NC(=O)C(=Cc2ccc(-c3ccccc3[N+](=O)[O-])o2)C(=O)N1 | 0.3005
COCCN=c1scc(-c2ccco2)n1/N=C/c1ccc(O)c(O)c1O | -0.01096
Cc1ccc(OCC(=O)Nc2ccc(-c3nc4ncccc4o3)cc2)c(C)c1 | 1.972
Cn1cc(/C=C(\C#N)C(=O)Nc2cccc([N+](=O)[O-])c2)c2ccccc21 | -2.068
N#Cc1ccc(/C=C\c2nccc3c2[nH]c2ccccc23)cc1 | 11.8
O=c1c(C(c2ccccc2)c2c(O)sc3ccccc3c2=O)c(O)sc2ccccc12 | 0.9661
COc1ccc(Cn2c(C3CCCCC3)nc3c(c(=O)c4ccccc4n3C)c2=O)cc1 | -0.7973
CCCCOc1ccc(-c2nnc(N)s2)cc1 | -1.643
Cc1ccccc1C(=O)Nc1nc(-c2cccnc2)cs1 | 0.09904
CC(=O)Nc1nc(C)c(-c2csc(Nc3cccc([N+](=O)[O-])c3)n2)s1 | 2.846
COc1cc(/C=C2\SC(c3ccccc3)=NC2=O)cc(Cl)c1O | -1.823
O=C(Nc1cccc(NC(=O)c2ccc(Br)o2)n1)c1ccc(Br)o1 | 3.363
Cc1nn(-c2ccccc2)c(C)c1-c1cc(C(=O)N/N=C/c2ccc(O)cc2)[nH]n1 | -1.26
O=C(Nc1ccc(N2CCCC2)cc1)C(c1ccccc1)c1ccccc1 | 3.174
O=C(/C=C\c1ccco1)NC(=S)Nc1ccccc1O | 0.7644
CCN1CCN(Cc2ccc(NC(=O)c3ccc(C)c(NC(=O)c4cc(-c5ccc(Br)cc5)n[nH]4)c3)cc2C(F)(F)F)CC1 | -2.38
COc1ccc(N2C(=O)/C(=C/C=C/c3ccccc3[N+](=O)[O-])C(=O)NC2=S)cc1 | -1.025
O=C1NC(=O)C(=Cc2ccc(OCCOc3ccc([N+](=O)[O-])cc3)cc2)C(=O)N1 | -0.5623
Cc1cc(/C=C2\SC(=Nc3ccccc3)NC2=O)c(C)n1-c1ccc(S(N)(=O)=O)cc1 | 0.1593
S=c1[nH]nc(-c2cc(-c3ccccc3)n[nH]2)n1/N=C/C=C/c1ccco1 | -1.499
O=C(Nc1ccc2oc(=O)ccc2c1)c1ccc(-c2cccc(Cl)c2)o1 | -1.969
O=C(Cn1c2ccccc2c(=O)c2ccccc21)N/N=C/c1cc([N+](=O)[O-])ccc1N1CCCCCC1 | 0.6882
Cc1cc(O)c(C(=O)/C=C/c2cccc([N+](=O)[O-])c2)c(=O)o1 | 0.3886
C[C@H](NC(=O)c1[nH]cnc1C(=O)Nc1ccc(CNC(=O)OC(C)(C)C)cc1)C(=O)OC(C)(C)C | -0.1443
Cc1sc(-n2c(C)cc(/C=C3\SC(=S)NC3=O)c2C)c(C#N)c1C | -0.7732
O=C(Cn1c(O)c(/C=C2\C=Nc3ccc(Br)cc32)sc1=O)N1CCCC1 | 2.483
C/C=C\C=C\C(=O)N1CC2(CC(c3cccc(NC(=O)CC(c4ccccc4)c4ccccc4)c3)=NO2)C[C@H]1C(N)=O (stereo not given in full) | 0.04819
O=C(c1c[nH]c(C(=O)C(Cl)(Cl)Cl)c1)c1ccccc1Br | -0.3695
O=C(O)c1ccc(N/N=C/c2ccc(OC(=O)c3cccc(Cl)c3)cc2)cc1 | -1.863
COc1cc2ncnc(NCc3ccco3)c2cc1OC | -1.449
O=C(O)c1ccc2nc(-c3ccco3)c(-c3ccco3)nc2c1 | 9.957
CCOC(=O)C1=C(C)C(c2ccccc2O)NC(=O)N1 (stereo not given) | 1.414
NC(=S)n1[nH]c(-c2ccc([N+](=O)[O-])cc2)c(N=Nc2ccc(Cl)cc2)c1=O | 0.282
COc1cc2nc(SCC(=O)NCc3ccco3)n(Cc3ccc(Cl)cc3)c(=O)c2cc1OC | -0.1459
COc1ccc(C2=NN(C(=O)c3ccco3)C(c3cc4ccccc4nc3Cl)C2)cc1 (stereo not given) | 0.6437
CN(C)S(=O)(=O)c1cccc(NC(=S)N/N=C/c2ccc(O)c(O)c2O)c1 | 0.0669
O=C(O)c1ccc2c(c1)C(=O)/C(=C\c1ccco1)C2=O | -0.1924
CCN(CC)c1ccc(/C=N/N2CCN(Cc3ccccc3)CC2)cc1 | -0.9054
Cc1nc2ccc3nc(NC(=O)c4ccc5c(c4)OCCO5)sc3c2s1 | 2.451
CCN1CCCc2cc(CN(CCN3CCOCC3)C(=S)Nc3cc(F)cc(F)c3)ccc21 | -2.101
COc1ccc(NC(=O)/C(C#N)=C\c2ccc(OCc3ccc(C(=O)O)cc3)c(OC)c2)cc1 | -1.743
C(=N\NCc1ccccc1)/c1ccc2nccnc2c1 | -0.2551
Nc1nn2cc(-c3ccc(Br)cc3)nc2c2ccccc12 | -0.1868
COc1ccccc1NC(=O)c1cc2c(s1)-c1ccccc1S(=O)(=O)C2 | -0.1503
Cc1ccc(NC(=O)CN2C(=O)N/C(=C/c3cc(C)n(-c4ccc(C(=O)O)cc4)c3C)C2=O)cc1 | 6.89
COc1ccc(C(=O)N/C(=C\c2ccccc2)C(=O)NC(CC(C)C)C(=O)O)cc1 (stereo not given) | -0.8706
COc1cc2ncnc(NCc3cccs3)c2cc1OC | -1.669
Oc1ccc(/C=N/Nc2ncnc3nc[nH]c23)cc1 | -1.252
Cn1c(COc2ccc(Br)cc2)nnc1SC1CCc2ccccc2C1=O (stereo not given) | -1.799
S=c1[nH]nc(-c2cc(-c3ccccc3)n[nH]2)n1/N=C/c1c(Cl)cccc1Cl | 0.243
COc1ccccc1OCCOc1ccc(/C=C2/C(=N)N3OC(C)=CC3=NC2=O)cc1OC | 0.7267
CC(C)[C@H](CO)Nc1nc(Nc2ccc(Cl)c(C(=O)O)c2)c2ncn(C(C)C)c2n1 | -0.5754
CCOc1cc(C2c3c(oc4ccccc4c3=O)C(=O)N2c2nccs2)ccc1O (stereo not given) | -1.63
Cc1cc(C(=O)N/N=C2\CC(=O)c3ccccc32)c(C)n1-c1ccc(F)cc1 | -2.098
CCCc1nc(SCC(=O)NNC(=O)C2CCCCC2)c2ccccc2n1 | 2.295
Cc1ccc2occ(/C=N/NC(=O)[C@@H](N)Cc3ccccc3)c(=O)c2c1 | -1.258
CCc1sc(/C=C(/C#N)C(N)=S)cc1[N+](=O)[O-] | 0.2988
NC(=O)c1nn(-c2ccc(Oc3ccccc3)cc2)c(=O)cc1O | -1.336
CCCc1cc(=O)oc2c(CN3CCCC3)c(O)c(Cl)cc12 | 13.41
CCN(CC)S(=O)(=O)c1ccc(OC)c(NC(=O)COc2ccccc2[N+](=O)[O-])c1 | -1.55
COc1ccc(N=C2NC(=O)/C(=C\C=C\c3ccco3)S2)cc1 | -0.3656
CCC(C)NC(=O)CCC(=O)Nc1ccc2nc(N3CC(C)CC(C)C3)cc(C)c2c1 (stereo not given) | 12.16
CCN1CCCc2cc(CN(CCN3CCOCC3)C(=S)Nc3ccc(OC)c(OC)c3)ccc21 | -0.8329
CSc1nc(N(C)CCO)c2sc3nc(-c4ccco4)c4c(c3c2n1)CCC4 | 2.323
C/C(=N\NC(=O)c1ccc(OC2OCCOC2Oc2ccc(C(=O)N/N=C(\C)c3ccncc3)cc2)cc1)c1ccncc1 (stereo not given) | -0.6907
CCOc1ccc(S(=O)(=O)N2CCCCC2)c(C)c1C | -0.7101
Nc1c(Cl)ncnc1N/N=C/c1ccc(O)cc1 | -0.05679
O=c1[nH][nH]c2c(N=Cc3ccccc3O)ccc(F)c12 | -0.8501
Nc1nonc1-c1nc2ccccc2n1CC(=O)N/N=C/c1ccc(-c2cccc(C(=O)O)c2)o1 | -0.2678

Some entries from above, unchanged:

structure,z-score
C[C@H](NC(=O)c1[nH]cnc1C(=O)Nc1ccc(CNC(=O)OC(C)(C)C)cc1)C(=O)OC(C)(C)C,-0.1443
CCCCOc1ccc(-c2nnc(N)s2)cc1,-1.643
O=c1c(C(c2ccccc2)c2c(O)sc3ccccc3c2=O)c(O)sc2ccccc12,0.9661
S=c1[nH]nc(-c2cc(-c3ccccc3)n[nH]2)n1/N=C/c1c(Cl)cccc1Cl,0.243
Cc1cccn2c(=O)c3cc(C#N)c(=NC(=O)c4cccs4)n(CCCOC(C)C)c3nc12,2.64
COc1cc2nc(SCC(=O)NCc3ccco3)n(Cc3ccc(Cl)cc3)c(=O)c2cc1OC,-0.1459
CC(=O)COc1nc2c(c(-c3ccco3)c1C#N)CCc1ccccc1-2,-0.918
CCN(CC)S(=O)(=O)c1ccc(OC)c(NC(=O)COc2ccccc2[N+](=O)[O-])c1,-1.55